This is an account of results in PMC5031922.

Amino acid sequences for entries named in this document (tags omitted).
UniProt Q96KQ7: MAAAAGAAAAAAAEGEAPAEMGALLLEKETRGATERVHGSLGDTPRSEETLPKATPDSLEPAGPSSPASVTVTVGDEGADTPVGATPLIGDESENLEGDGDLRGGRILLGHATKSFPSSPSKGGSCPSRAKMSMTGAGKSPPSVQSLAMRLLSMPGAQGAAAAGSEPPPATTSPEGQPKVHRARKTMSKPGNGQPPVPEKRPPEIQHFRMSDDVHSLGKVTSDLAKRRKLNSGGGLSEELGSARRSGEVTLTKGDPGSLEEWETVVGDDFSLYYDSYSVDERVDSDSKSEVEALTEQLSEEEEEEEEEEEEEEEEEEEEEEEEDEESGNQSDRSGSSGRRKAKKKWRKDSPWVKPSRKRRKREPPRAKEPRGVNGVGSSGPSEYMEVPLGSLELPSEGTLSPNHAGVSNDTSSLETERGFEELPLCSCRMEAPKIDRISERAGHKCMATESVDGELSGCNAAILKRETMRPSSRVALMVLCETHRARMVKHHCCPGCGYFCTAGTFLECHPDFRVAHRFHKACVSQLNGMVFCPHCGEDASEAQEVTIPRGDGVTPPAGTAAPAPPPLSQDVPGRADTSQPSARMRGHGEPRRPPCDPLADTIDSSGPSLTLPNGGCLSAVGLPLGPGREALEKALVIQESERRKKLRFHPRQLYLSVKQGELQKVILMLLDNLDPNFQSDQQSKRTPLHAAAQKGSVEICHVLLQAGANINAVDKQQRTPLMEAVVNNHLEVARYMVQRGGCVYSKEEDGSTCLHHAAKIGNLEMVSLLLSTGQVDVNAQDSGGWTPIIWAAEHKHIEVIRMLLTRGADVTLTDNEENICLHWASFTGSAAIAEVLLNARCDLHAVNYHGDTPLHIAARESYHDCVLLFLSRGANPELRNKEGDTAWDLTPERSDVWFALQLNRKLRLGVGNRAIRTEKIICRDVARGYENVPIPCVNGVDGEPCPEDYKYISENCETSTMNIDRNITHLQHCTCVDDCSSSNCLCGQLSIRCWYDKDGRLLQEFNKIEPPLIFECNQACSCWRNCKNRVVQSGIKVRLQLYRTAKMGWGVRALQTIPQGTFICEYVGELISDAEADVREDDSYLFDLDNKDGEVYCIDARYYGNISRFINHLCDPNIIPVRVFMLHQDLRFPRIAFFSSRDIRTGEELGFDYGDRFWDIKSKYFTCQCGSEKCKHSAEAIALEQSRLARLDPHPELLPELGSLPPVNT
UniProt Q9H9B1: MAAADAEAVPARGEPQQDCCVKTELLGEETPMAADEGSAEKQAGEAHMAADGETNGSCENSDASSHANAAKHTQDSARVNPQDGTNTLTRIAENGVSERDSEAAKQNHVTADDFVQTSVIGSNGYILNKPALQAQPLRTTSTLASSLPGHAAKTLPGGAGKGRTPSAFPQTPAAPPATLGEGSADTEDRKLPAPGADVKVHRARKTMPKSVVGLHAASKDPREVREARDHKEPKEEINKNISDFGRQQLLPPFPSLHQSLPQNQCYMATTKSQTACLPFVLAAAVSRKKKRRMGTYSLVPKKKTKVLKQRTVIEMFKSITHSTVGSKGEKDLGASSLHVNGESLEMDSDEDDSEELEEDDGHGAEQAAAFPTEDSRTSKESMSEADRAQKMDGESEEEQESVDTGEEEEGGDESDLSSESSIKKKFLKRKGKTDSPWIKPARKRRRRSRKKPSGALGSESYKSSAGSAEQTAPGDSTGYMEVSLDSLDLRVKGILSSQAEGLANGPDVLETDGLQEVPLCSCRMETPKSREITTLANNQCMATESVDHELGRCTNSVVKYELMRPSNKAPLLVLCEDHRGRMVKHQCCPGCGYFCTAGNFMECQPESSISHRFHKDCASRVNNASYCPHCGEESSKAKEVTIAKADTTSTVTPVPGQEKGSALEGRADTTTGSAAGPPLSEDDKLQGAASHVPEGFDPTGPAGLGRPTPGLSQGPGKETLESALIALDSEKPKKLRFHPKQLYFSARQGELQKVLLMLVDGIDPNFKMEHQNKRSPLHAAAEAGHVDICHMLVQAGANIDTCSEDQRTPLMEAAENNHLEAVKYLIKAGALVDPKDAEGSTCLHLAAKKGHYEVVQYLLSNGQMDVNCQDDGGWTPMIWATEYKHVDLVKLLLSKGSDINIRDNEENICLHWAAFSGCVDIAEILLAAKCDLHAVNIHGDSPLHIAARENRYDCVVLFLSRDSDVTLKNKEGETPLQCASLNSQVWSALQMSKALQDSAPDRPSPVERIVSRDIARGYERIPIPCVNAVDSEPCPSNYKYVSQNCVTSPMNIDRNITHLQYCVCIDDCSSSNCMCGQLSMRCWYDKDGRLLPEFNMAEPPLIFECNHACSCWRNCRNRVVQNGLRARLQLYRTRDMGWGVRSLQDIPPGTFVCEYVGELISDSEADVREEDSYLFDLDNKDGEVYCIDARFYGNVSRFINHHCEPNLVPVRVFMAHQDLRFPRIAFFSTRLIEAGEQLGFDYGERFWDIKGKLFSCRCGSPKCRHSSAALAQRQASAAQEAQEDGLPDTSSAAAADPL
UniProt O95785: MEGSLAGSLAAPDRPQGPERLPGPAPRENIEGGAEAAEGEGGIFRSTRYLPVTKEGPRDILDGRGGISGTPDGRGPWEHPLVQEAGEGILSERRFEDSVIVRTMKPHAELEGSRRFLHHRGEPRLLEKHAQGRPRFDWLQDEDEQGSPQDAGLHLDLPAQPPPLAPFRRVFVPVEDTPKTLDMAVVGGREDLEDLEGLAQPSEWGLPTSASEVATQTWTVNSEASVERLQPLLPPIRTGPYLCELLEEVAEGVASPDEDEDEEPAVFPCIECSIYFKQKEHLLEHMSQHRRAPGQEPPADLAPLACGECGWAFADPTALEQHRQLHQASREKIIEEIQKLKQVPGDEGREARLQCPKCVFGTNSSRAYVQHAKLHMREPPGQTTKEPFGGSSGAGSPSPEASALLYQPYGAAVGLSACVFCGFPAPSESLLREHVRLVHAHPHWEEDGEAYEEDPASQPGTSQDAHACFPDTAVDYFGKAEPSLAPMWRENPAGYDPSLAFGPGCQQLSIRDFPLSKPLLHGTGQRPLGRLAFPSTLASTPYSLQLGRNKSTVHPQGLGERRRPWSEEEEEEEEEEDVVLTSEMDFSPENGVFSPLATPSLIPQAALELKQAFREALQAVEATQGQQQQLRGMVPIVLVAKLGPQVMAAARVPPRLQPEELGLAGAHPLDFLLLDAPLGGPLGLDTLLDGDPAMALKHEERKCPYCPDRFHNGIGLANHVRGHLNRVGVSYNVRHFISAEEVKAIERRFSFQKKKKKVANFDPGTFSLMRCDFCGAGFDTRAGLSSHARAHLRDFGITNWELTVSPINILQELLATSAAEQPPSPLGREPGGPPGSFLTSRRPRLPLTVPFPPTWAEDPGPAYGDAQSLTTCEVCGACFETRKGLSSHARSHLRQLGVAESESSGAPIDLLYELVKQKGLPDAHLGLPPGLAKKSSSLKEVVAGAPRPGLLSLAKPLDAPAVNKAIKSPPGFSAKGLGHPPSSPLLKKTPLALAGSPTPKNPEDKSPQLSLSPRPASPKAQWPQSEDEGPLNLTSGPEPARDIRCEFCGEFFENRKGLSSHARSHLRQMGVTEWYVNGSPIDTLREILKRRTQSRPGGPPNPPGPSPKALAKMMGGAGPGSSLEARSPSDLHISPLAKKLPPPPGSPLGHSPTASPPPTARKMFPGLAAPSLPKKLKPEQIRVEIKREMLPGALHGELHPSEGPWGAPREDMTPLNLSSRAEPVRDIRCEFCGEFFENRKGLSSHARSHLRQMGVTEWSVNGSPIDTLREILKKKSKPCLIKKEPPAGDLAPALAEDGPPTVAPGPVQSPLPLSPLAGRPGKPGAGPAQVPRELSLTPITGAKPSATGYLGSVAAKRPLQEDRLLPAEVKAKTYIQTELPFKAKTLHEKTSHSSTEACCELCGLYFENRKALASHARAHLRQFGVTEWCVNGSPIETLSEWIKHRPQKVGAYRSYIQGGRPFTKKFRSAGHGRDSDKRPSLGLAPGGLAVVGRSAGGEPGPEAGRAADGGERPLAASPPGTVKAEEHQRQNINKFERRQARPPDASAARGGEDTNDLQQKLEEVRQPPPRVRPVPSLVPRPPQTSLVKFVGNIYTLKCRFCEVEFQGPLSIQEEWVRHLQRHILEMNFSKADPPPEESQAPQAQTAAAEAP

Residue numbers refer to the chain shown, from its start. No constants are given. Whether binding was seen depends on the method and setting. In cells and extracts the contact can be indirect. Here binding means that the protein was enriched with, or labelled near, the bait; the list need not be complete. For part of these data: A no says only that the protein was not detected with the bait. Tags and fused reporters may be left off the sequences shown.

The target of test [1] is T1, GFP-tagged full-length WT ZNF644 (human) (UniProt Q9H582).
T1 sequence: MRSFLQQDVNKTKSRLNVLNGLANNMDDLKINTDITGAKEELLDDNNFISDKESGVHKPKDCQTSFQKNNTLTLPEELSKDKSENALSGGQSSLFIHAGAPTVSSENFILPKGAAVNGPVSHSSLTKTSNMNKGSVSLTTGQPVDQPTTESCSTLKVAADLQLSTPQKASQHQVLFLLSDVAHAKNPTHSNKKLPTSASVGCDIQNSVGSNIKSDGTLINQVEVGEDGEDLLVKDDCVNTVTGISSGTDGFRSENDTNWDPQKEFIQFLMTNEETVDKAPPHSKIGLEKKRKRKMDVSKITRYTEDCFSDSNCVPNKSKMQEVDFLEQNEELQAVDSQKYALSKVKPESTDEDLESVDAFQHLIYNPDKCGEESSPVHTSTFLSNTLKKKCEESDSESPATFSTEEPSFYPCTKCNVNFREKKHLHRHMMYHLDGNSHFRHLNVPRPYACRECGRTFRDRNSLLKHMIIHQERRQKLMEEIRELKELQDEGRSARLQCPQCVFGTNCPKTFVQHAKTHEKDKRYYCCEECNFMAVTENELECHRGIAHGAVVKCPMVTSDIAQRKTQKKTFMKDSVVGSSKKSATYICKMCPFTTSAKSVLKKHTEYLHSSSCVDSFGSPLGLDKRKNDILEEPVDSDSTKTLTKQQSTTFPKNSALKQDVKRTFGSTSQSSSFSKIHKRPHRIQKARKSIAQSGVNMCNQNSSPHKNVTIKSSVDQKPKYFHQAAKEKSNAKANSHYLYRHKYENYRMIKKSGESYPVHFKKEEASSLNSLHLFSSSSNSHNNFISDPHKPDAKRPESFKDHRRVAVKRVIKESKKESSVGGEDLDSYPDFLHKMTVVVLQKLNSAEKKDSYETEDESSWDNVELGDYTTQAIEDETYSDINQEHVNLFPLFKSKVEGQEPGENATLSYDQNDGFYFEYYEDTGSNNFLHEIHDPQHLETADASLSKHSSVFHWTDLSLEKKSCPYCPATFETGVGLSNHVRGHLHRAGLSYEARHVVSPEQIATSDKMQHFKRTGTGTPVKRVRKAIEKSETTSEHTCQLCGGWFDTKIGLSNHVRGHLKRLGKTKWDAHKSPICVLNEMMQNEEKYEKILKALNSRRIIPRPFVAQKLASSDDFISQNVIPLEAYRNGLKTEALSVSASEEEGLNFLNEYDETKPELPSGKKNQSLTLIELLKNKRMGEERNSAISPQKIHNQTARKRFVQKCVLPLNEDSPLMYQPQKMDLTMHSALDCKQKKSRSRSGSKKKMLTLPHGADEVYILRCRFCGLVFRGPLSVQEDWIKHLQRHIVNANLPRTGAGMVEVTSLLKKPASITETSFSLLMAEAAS
As to the kind of experiment: affinity purification with mass spectrometry; GFP-tagged bait in Flp-In T-Rex HEK293, induced with 1 ug/ml doxycycline for 24 hr; purified with rabbit anti-GFP antibody.

Test [2] has as its target T2, GFP-tagged full-length ZNF644 C1263A (human) (UniProt Q9H582).
T2 sequence: T1 sequence with C1263A
The test is described as above.

As for “G9a (endogenous) (from UniProt Q96KQ7 1-1210) (enzyme)”, the binding entry is given as “binds” in test [1] and “no binding” in test [2].
Taken in the same sequence, the figures for “GLP (from UniProt Q9H9B1 1-1298) (enzyme)” were “binds” and “no binding”.
Taken in the same sequence, the figures for WIZ (from UniProt O95785 1-1651) were “binds” and “no binding”.
